These results are taken from patent publication US20150050728A1, “Identification Of Novel Cell Surface Markers For Pancreatic Progenitor Cells And Definite Endodermal Cells” (priority 2010, published 2015).

Series [1] concerns PDX1-GFP cells. The series is described as follows: Affymetrix Human Gene ST1.0 microarray, PDX1-GFP cells vs SOX17-GFP cells.
A further series deals with Pancreas cells. Kind of series: Partek cluster analysis of stage specific genes (hESC, SOX17, PDX1, Pancreas), fold change and T-test. The arrangement: species or system human. As to conditions: for PDX1/PANC fold change / SOX17/PANC fold change: Table 19; for PDX1/PANC fold change: expression in PDX1-GFP cells vs Pancreas cells; for SOX17/PANC fold change: expression in SOX17-GFP cells vs Pancreas cells.

Series [2] concerns PDX1-GFP cells. The series is described as follows: Affymetrix Human Gene ST1.0 microarray, PDX1-GFP cells vs genetically unmodified hESCs. The settings on record: non-membranal genes down-regulated; expression in PDX1-GFP cells vs genetically unmodified HESCs; (−) = downregulated.
The mark [3] stands for this setting: non-membranal genes downregulated in PDX1 cells as compared to SOX17 cells, log 2 fold change in expression, PDX1-GFP cells vs SOX17-GFP cells, (−) = downregulated in PDX1-GFP cells.
[4] abbreviates: Table 13, SOX17 specific cell surface genes, expression in SOX17-GFP cells vs undifferentiated hESCs.

Values joined by “and” are separate entries in the source; they are usually repeats but may differ in a detail not shown here. Identical values can stand only once.

Regarding BMP2, in the series with PDX1-GFP cells [1] (setting [3]), the “Log 2 fold change [PDX-SOX17]” value is −4.43. The substance also registered an SOX17/HESC fold change with Pancreas cells (setting [4]) of 3.36.

In the case of APOA1, in the series on PDX1-GFP cells [1] (setting [3]), the “Log 2 fold change [PDX-SOX17]” value is −2.94 and −2.89. In the series on Pancreas cells (setting [4]), the SOX17/HESC fold change was 7.79 and 7.44. For the same substance, in the series with Pancreas cells, the PDX1/PANC fold change was 2.20 and 2.21; the SOX17/PANC fold change was 8.83 and 8.49.

For the substance NPPB, in the series on PDX1-GFP cells [2], the “Log 2 fold change [PDX1-HESC]” value is given as −2.35. For the same substance, the “Log 2 fold change [PDX-SOX17]” value in the series on PDX1-GFP cells [1] (setting [3]) is given as −3.32.

Take DKK1: the “Log 2 fold change [PDX-SOX17]” value with PDX1-GFP cells [1] (setting [3]) is −5.03. Also, in the series with Pancreas cells, the PDX1/PANC fold change is on record as 9.73 and the SOX17/PANC fold change was 73.19. The SOX17/HESC fold change with Pancreas cells (change in expression level of the gene between SOX17-GFP cells and undifferentiated hESCs, Affymetrix probe set) came to 12.95.

On to FGF2, for which the “Log 2 fold change [PDX-SOX17]” value in the series with PDX1-GFP cells [1] (expression level of the gene in PDX1-GFP cells as compared to SOX17-GFP cells, non-membranal genes upregulated in PDX1 cells, Affymetrix probe set) was 3.44.

Turning to NODAL, in the series with PDX1-GFP cells [2], the “Log 2 fold change [PDX1-HESC]” value is reported as −4.21. The “Log 2 fold change [PDX-SOX17]” value with PDX1-GFP cells [1] (setting [3]) is reported as −2.26.
